# “And” between values parts separate entries of the source, which are not always exact repeats. Equal values may be shown once. In all, about 400,000 compounds went through this assay and about 13,000 (3.2%) were called active. The inconclusive results got no clear call from the source; some entries with a clear call stand among them for comparison. Calls follow the shape of the dose curve; as a rule, active = well fitted cell-killing curve with a large enough effect; inconclusive = small, poorly fitted or top-dose-only effect, or effect the other way; inactive = flat fitted curve, though single readings scatter. Potencies beside an inconclusive call are fits to weak or partial responses and may not hold up.
# Test: qHTS assay for MDR1-selective chemotherapeutics: Primary screen using the drug-selected MDR subline cells KB-V1; also: nearly all actives have a fitted effect of over 60% in size
# Conditions: KB-V1 MDR cells viability, CellTiter-Glo, 72 h; activity change, negative = cytotoxicity: at 46.1 µM (top of the series)
# Outline: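 Readout: CellTiter-Glo luminescence, 10 min after addition. Cells: KB-V1 MDR subline, 72 h at 37 degrees C with compound. Analysis: corrected, normalized data fitted to concentration-effect curves.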
# % is scaled to controls: 0 for no effect and ±100 for the full control effect; potency is read from the fitted curve at half-maximal effect.
SMILES,"activity change, negative = cytotoxicity",Potency
Cc1ccc(S(=O)(=O)NCc2ccccc2Br)cc1,inconclusive: -32.6% [cytotoxic],
COc1ccc(CCC(=O)OCC(=O)N2CCN(S(=O)(=O)c3ccc(C)cc3C)CC2)cc1,,"inconclusive: 16.4 µM [rising, single point]"
O=C(CCC(=O)N1CCN(c2ccc(F)cc2)CC1)c1ccc(Cl)cc1,inactive: -17.7%,
Cc1nc(C(F)(F)F)ccc1C(=O)N1CCCC(C(=O)O)CC1 (stereo not given),inactive: 5.43%,
CCOC(=O)C1CCN(CC(O)COc2ccc(C(C)(C)CC)cc2)CC1 (stereo not given),,"inconclusive: 10.3 µM [cytotoxic, partial curve, poor fit]"
COc1ccc(C(C)=O)cc1COC(=O)c1ccc2ccccc2n1,inactive: -6.35%,
COc1ccc(N2CCN(C(=O)c3ccc(N4CCCCS4(=O)=O)cc3)CC2)cc1,,"inconclusive: 2.59 µM [cytotoxic, partial curve, poor fit]"
CCOC(=O)c1cc(C)n(Cc2cccc(OC)c2OC)c1C,,"inconclusive: 20.6 µM [cytotoxic, single point]"
Oc1ccc(Nc2nc(-c3cccnc3)cs2)cc1,,"inconclusive: 13 µM [cytotoxic, partial curve]"
c1ccc(CN2CCN(C(c3ccccc3)c3ccccc3)CC2)cc1,,"inconclusive: 3.66 µM [cytotoxic, full curve]"
COc1ccc(CNC(=O)CSc2ncc3c(n2)-c2cc(Cl)ccc2N(C)S3(=O)=O)cc1,inactive: 4.04%,
CCNC(=O)NC(=O)C(C)OC(=O)C1CCN(S(=O)(=O)c2ccc(C)c(C)c2)CC1 (stereo not given),,"inconclusive: 14.6 µM [cytotoxic, single point]"
O=C(C1CCN(C2CC(=O)N(c3cccc(Cl)c3)C2=O)CC1)N1CCCC1 (stereo not given),,"inconclusive: 20.6 µM [rising, partial curve]"
O=C(NCc1cccnc1)C(=O)NCC(c1ccco1)N1CCN(c2ccccc2F)CC1 (stereo not given),,"inconclusive: 14.6 µM [cytotoxic, partial curve]"
COC(=O)/C(C#N)=C/c1c(Oc2cc(C)cc(C)c2)nc2c(C)cccn2c1=O,,"inconclusive: 29.1 µM [cytotoxic, single point]"
COc1ccc(N(C(=O)c2cccc(C)c2)S(=O)(=O)c2ccc3c(c2)n(C)c(=O)n3C)cc1,inactive: 13.6%,
CN(CCCNC(=O)c1cc2c(=O)n(C)c3ccccc3c2s1)Cc1ccccc1,inactive: -28.7%,
Cc1c(C(=O)N2CC(C)OC(C)C2)sc2nc(-c3ccc(F)cc3)cn12 (stereo not given),,active: 8.2 µM
Cc1ccc(NC(=O)Cc2ccccc2Cl)cc1S(=O)(=O)N(C)C,,active: 23.1 µM
COC(=O)[C@H](CC(C)C)N(Cc1ccccc1)S(=O)(=O)N(Cc1ccc(OC)cc1)[C@@H](CC(C)C)C(=O)OC,,"active: 18.4 µM and inconclusive: 20.6 µM [cytotoxic, single point]"
O=C(CCC(=O)c1cccs1)NNC(=O)c1cccc(Cl)c1,inactive: -4.28%,
CN(CC(=O)Nc1ccc2c(c1)OCO2)S(=O)(=O)c1cccs1,inactive: 13.4%,
Cc1ccc(OCc2nnc(SCC(=O)c3ccccc3)n2Cc2ccco2)cc1,,"inconclusive: 29.1 µM [cytotoxic, single point]"

# Gathered by group, the compounds so far with a furan ring, fused or not.
SMILES,"activity change, negative = cytotoxicity",Potency
O=C(NCc1cccnc1)C(=O)NCC(c1ccco1)N1CCN(c2ccccc2F)CC1 (stereo not given),,"inconclusive: 14.6 µM [cytotoxic, partial curve]"
Cc1ccc(OCc2nnc(SCC(=O)c3ccccc3)n2Cc2ccco2)cc1,,"inconclusive: 29.1 µM [cytotoxic, single point]"

# (next part)

SMILES,"activity change, negative = cytotoxicity",Potency
CN(C)CCNc1oc(-c2cccc(Cl)c2)nc1C#N,,"inconclusive: 29.1 µM [cytotoxic, partial curve, poor fit]"
O=C(Nc1nc2ccc([N+](=O)[O-])cc2s1)c1ccc(S(=O)(=O)N2CCCc3ccccc32)cc1,,active: 1.03 µM
Cc1cc2n(n1)C(c1c[nH]c3ccccc13)Nc1ccccc1-2 (stereo not given),inconclusive: -34.5%,
CN(C)c1ccc(CC(=O)N2CCCC(c3cc(C(=O)Nc4ccc5c(c4)OCO5)no3)C2)cc1 (stereo not given),inactive: 1.01%,
COc1ccc2cc(/C=N/O)c(Cl)nc2c1,,"inconclusive: 14.6 µM [cytotoxic, partial curve]"
O=C(N/N=C/c1ccc(O)c2ncccc12)c1cccc(Br)c1,,"inconclusive: 0.411 µM [cytotoxic, full curve, poor fit]"
CN(NC(=O)Nc1ccccc1)c1cnn(C)c(=O)c1Cl,,"inconclusive: 14.6 µM [rising, partial curve, poor fit]"
N=c1nc(-c2ccccc2)n(-c2ccccc2)s1,,"inconclusive: 13 µM [rising, partial curve, poor fit]"
O=C(NCc1cccs1)c1csc([C@@H]2O[C@H](CO)[C@H](O)[C@H](O)[C@H]2O)n1,inactive: -1.56%,
O=C(NC(Cc1ccccc1)c1ccc2c(c1)OCCCO2)c1ccccc1F (stereo not given),,active: 16.4 µM
O=C(COC(=O)c1cnccn1)Nc1cccc2ccccc12,,"inconclusive: 4.61 µM [rising, partial curve]"
Cc1ccccc1C(=O)NCC(=O)NNC(=O)c1cccc(Cl)c1,,"inconclusive: 23.1 µM [rising, partial curve]"
COc1ccc(N2CCN(C(=O)Cn3c(-c4cccs4)cc4ccccc43)CC2)cc1,inactive: -48.6%,
Clc1cccc(-n2ncc3c(Nc4ccc5c(c4)OCCO5)ncnc32)c1,inactive: -17.2%,
Cc1occc1C(=O)Nc1nnc(C2CCCCC2)s1,,active: 16.4 µM
CC(C)CCN1CCN(CC#Cc2ccccc2)CC1CCO (stereo not given),inactive: -9.7%,
Cc1ccc2[nH]c(=O)c(COC(=O)C3CCCO3)cc2c1 (stereo not given),,"inconclusive: 11.6 µM [cytotoxic, partial curve]"
COc1ccccc1C(=O)C1CCCN(C(=O)CSc2ccccn2)C1 (stereo not given),,"inconclusive: 8.2 µM [cytotoxic, partial curve, poor fit]"
Cc1ccc(C)c(Cn2c(=O)n(-c3ccc(F)cc3)c(=O)c3sc4ccccc4c32)c1,inconclusive: 31.9%,
O=C(CN(Cc1ccccc1F)C(=O)c1csnn1)NC1CCCCC1,,"inconclusive: 5.17 µM [cytotoxic, partial curve, poor fit]"
COc1ccc2[nH]c(=O)c(CN(C(C)=O)c3ccc(C)cc3C)cc2c1,,"inconclusive: 16.4 µM [cytotoxic, single point]"
COc1ccc(C(=O)Nc2cccc(-c3ccc(N4CCOCC4)nn3)c2)cc1OC,,"inconclusive: 18.4 µM [cytotoxic, single point]"

# — PubChem BioAssay AID1347076 (National Center for Advancing Translational Sciences (NCATS), 2019)
